Experimental data published in patent US20050267204A1, “Synergistic gold-containing compositions” (MEDICAL INNOVATIONS LIMITED, priority 1996, published 2005).
“And” between values parts separate entries of the source, which are not always exact repeats. Equal values may be shown once. For some of these results: The name of at least one read-out is uncertain. For at least one compound, name, drawing or mass did not settle the structure.

What was measured:
[1] = tested on: TPA-induced epidermal hyperplasia; test: Inhibition of TPA-induced epidermal hyperplasia (epidermal thickness) on back skin of mice; format: in vivo, BALB/c mice; details: ranking in text
Experimental: (§1) The mice were housed in stainless steel cages, 6 mice per cage under normal laboratory conditions (room temperature at about 22° C.) at least 7 days before the experiments for acclimatization. Food and water were allowed ad libitum throughout the experiment period. The backs of the mice were shaved with an electric clipper two days before each treatment and only those mice showing no hair regrowth were used (i.e., the mice in the resting phase of the hair growth cycle were selected). During treatment, the mice were held with their tails and put on top of the cage so that they grasped the cage and rested there. The solutions were applied to an area approximately 2 cm×2 cm on the shaved back of the mice by using a “Pipetman” to apply the solution. If auranofin ointment or ointment base was applied, the amount was standardized by using a microspatula which was crimped at one end, the ointment was then put into the ridge and the excess removed by means of another microspatula and applied sparingly twice a day. After a fixed time, the mice were killed routinely by cervical dislocation between 9 a.m. and 11 a.m. to avoid variations due to circadian rhythms, and an area (1 cm×1 cm) was excised from the centre of the treated area by scalpel and scissors. The rest of the tissues were disposed by combustion. The tissues were then fixed, embedded, sectioned and stained.
Epidermal thickness was determined by image analysis. […] The mean and SEM for the six mice in each treatment group were calculated.
The percent inhibition of drug on TPA-induced skin responses (i.e., epidermal hyperplasia, inflammatory cell infiltration and skin-fold thickness) was calculated by using the following formula: [formula] […]
Mice were divided into treatment groups. […] The efficacy of corticosteroids in inhibiting epidermal hyperplasia, inflammatory cell infiltration and skin-fold thickness was assessed as described previously. Concentration-response curves were determined after computer-fitting of data.

[2] = tested on: TPA-induced inflammatory cell infiltration into the dermis; test: Inhibition of TPA-induced inflammatory cell infiltration into the dermis of mice; format: in vivo, BALB/c mice; details: for Potency for inhibition of TPA-induced inflammatory cell infiltration (in words): ranking in text
Experimental: as §1
Infiltration of inflammatory cells was determined by the same image analysis system using the section taken from the block of mouse skin embedded in paraffin wax or Spurr's resin and stained with haematoxylin and eosin or toluidine blue respectively. For each section, 10 fields, unless otherwise stated, were chosen randomly and the cell density per mm^2 of field determined. The average value for the 10 fields was obtained and entered as one value for each mouse. The mean and SEM for the six mice in each treatment group were calculated.
The measurement of the inflammatory cell infiltration included the background values which included other materials in the dermis stained in the same way.
The percent inhibition of drug on TPA-induced skin responses (i.e., epidermal hyperplasia, inflammatory cell infiltration and skin-fold thickness) was calculated by using the following formula: [formula]
This provides estimates of (a) the potency, (b) the efficacy or maximum effect (Emax) and the slope of the log concentration-response curve by using Hill coefficient (γ). The Hill Equation may be expressed as follows: [formula] where IC50 is the drug concentration producing 50% of the maximal response and Emax refers to the maximal effect produced by the drug and is also termed efficacy. Efficacy is the measurement of the intrinsic ability of a drug to initiate a response once it occupies receptor sites. […]

SMILES	Potency for inhibition of TPA-induced epidermal hyperplasia (in words) [1]	Potency for inhibition of TPA-induced inflammatory cell infiltration (in words) [2]	Relative potency ([2]; from Hill-equation IC50, hydrocortisone acetate = 1.0)
C[C@H]1C[C@H]2[C@@H]3CCC4=CC(=O)C=C[C@]4(C)[C@@]3(F)[C@@H](O)C[C@]2(C)[C@@]1(O)C(=O)CO [Betamethasone, betamethasone]	low to medium potencies	low to medium potencies	
C[C@@H]1C[C@H]2[C@@H]3CCC4=CC(=O)C=C[C@]4(C)[C@@]3(F)[C@@H](O)C[C@]2(C)[C@@]1(O)C(=O)CO [Dexamethasone]	low to medium potencies	low to medium potencies	
CC1(C)O[C@@H]2C[C@H]3[C@@H]4C[C@H](F)C5=CC(=O)C=C[C@]5(C)[C@@]4(F)[C@@H](O)C[C@]3(C)[C@]2(C(=O)CO)O1 [Fluocinolone acetonide, fluocinolone acetonide]			483 and 483.31
CC1(C)O[C@@H]2C[C@H]3[C@@H]4CCC5=CC(=O)C=C[C@]5(C)[C@@]4(F)[C@@H](O)C[C@]3(C)[C@]2(C(=O)CO)O1 [Triamcinolone acetonide]	medium to strong potencies	medium to strong potencies	
